Data as given in PubChem BioAssay AID1259425 (University of Nebraska Medical Center, 2018)

Test: 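Compare each knockdown with KSR1 silencing using changes in marker transcripts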 (primary screen)
System: HCT116 human colon cancer cells
Reagent: siRNA pool against human genes, 50 nM siRNA
Measured: 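After 50 nM siRNA pool, branched-DNA assay measures six marker transcripts per well, minus blank, normalised to the geometric mean of two housekeeping transcripts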
Direction: BNIP3L mRNA: higher = more BNIP3L transcript after knockdown; NDRG1 mRNA: higher = more NDRG1 transcript after knockdown; BNIP3 mRNA: higher = more BNIP3 transcript after knockdown; ALDOC mRNA: higher = more ALDOC transcript after knockdown; ACSL5 mRNA: higher = more ACSL5 transcript after knockdown
In all, the deposit lists about 14,000 reagents; below is an unselected part. Reagent sequences are not shown. The record does not give: the time to read-out.

gene knocked down	BNIP3L mRNA, set 1	NDRG1 mRNA, set 1	BNIP3 mRNA, set 1	ALDOC mRNA, set 1	ACSL5 mRNA, set 1
ABCA6	0.0707	0.268	0.365	0.0374	0.335
MYL3	0.0602	0.0788	0.296	0.0105	0.102
ASTE1	0.1	0.201	0.336	0.0373	0.232
CBLN1	0.129	0.168	0.323	0.0178	0.207
UBXN8	0.109	0.111	0.514	0.0648	0.198
ARIH1	0.0393	0.134	0.118	0.0172	0.0984
POMZP3	0.215	0.22	0.537	0.0299	0.134
STRADB	0.105	0.13	0.492	0.0103	0.26
OTX2	0.136	0.133	0.302	0.0426	0.099
MARCO	0.101	0.284	0.289	0.0163	0.123
METTL2B	0.162	0.154	0.284	0.032	0.216
MEGF8	0.103	0.109	0.297	0.0142	0.174
AAMP	0.228	0.335	0.613	0.00907	0.276
LINC00470	0.15	0.176	0.397	0.0213	0.235
POGZ	0.179	0.352	0.247	0.0266	0.113
GSPT1	0.157	0.387	0.412	0.0187	0.0926
MTCL2	0.106	0.473	0.767	0.0568	0.297
GRIK4	0.147	0.717	0.247	0.0309	0.158
ADAM3A	0.0589	0.156	0.242	0.0104	0.101
HACD1	0.0715	0.1	0.256	0.0124	0.116
JMJD6	0.114	0.152	0.268	0.0202	0.173
PIP5K1P1	0.0897	0.249	0.31	0.033	0.261
CLIC3	0.0759	0.269	0.236	0.0176	0.19
LEF1	0.195	0.1	0.578	0.0219	0.342
UFL1	0.216	0.119	0.358	0.0237	0.172
FGFR1OP2	0.0574	0.259	0.523	0.0418	0.126
SLC66A1	0.132	0.134	0.329	0.016	0.17
TCIRG1	0.0383	0.109	0.586	0.00763	0.0861
YIPF3	0.08	0.174	0.362	0.0333	0.161
ADAMTS13	0.104	0.0988	0.235	0.0152	0.0659
SLC7A6OS	0.382	0.458	0.471	0.242	0.531
VN1R4	0.0794	0.138	0.291	0.03	0.121
SBNO2	0.142	0.102	0.303	0.00829	0.176
TBX21	0.179	0.0917	0.306	-0.00281	0.348
RACGAP1	0.0945	0.162	0.263	0.033	0.205
MAG	0.218	0.324	0.431	0.0175	0.183
VNN2	0.179	0.675	0.367	0.0305	0.0993
SLC67A2	0.109	0.256	0.271	0.0268	0.176
SMG8	0.0779	0.248	0.211	0.0326	0.236
SLC71A3P	0.17	0.331	0.21	0.047	0.487
CCT3	0.125	0.202	0.38	0.00947	0.174
ZDHHC7	0.13	0.234	0.34	0.00975	0.0899
FCGR3A	0.171	0.337	0.354	0.0219	0.267
WT1	0.0802	0.151	0.305	0.0135	0.163
TTN	0.0904	0.0408	0.311	0.019	0.104
EPS8L3	0.163	0.2	0.313	0.0843	0.219
FNTB	0.118	0.0588	0.356	0.0412	0.166
FRMD4B	0.113	0.467	0.46	0.0554	0.408
HLA-DRA	0.078	0.115	0.288	0.0177	0.154
P2RX4	0.0815	0.118	0.278	0.0178	0.0848

A run of entries from the list above:
gene knocked down	BNIP3L mRNA, set 1	NDRG1 mRNA, set 1	BNIP3 mRNA, set 1	ALDOC mRNA, set 1	ACSL5 mRNA, set 1
POMZP3	0.215	0.22	0.537	0.0299	0.134
STRADB	0.105	0.13	0.492	0.0103	0.26
OTX2	0.136	0.133	0.302	0.0426	0.099
MARCO	0.101	0.284	0.289	0.0163	0.123
